PubChem BioAssay AID686938 | Drosophila RNAi Screening Center – 2013

- Purpose: 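Fly genes required for calcium entry once internal stores are emptied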 (primary screen)
- Cell system: Drosophila S2R+ cells
- Reagents: long dsRNA against Drosophila genes, about 0.25 µg dsRNA per well, roughly 10,000 cells
- Duration: 5 days of knock-down before the calcium assay
- Conditions: thapsigargin (SERCA pump blocker) to empty calcium stores; entry signal taken 4 min after adding it
- Detection: 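Per-well fluo-4 fluorescence in two replicates, unnormalised, measured in resting cells and 4 min after store depletion by the SERCA blocker thapsigargin; ratio of the two present in few wells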
- Direction: calcium entry signal: higher = stronger calcium signal after store depletion; entry to resting ratio: higher = more calcium entry relative to resting level; resting calcium signal: higher = higher resting calcium signal
- Hit rule: 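Hit if the duplicate-averaged plate z-score for entry over resting signal is under −3; wells with weak total dye signal (Fmax z < −2) or more than 5 off-targets removed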
- Meaning of the calls: active = strongly reduced calcium entry; inactive = no strong reduction
The screen tested about 23,000 reagents; this is an unselected part of those with a known target gene and a result. Over the whole deposit, 75 (0.33%) got an active call. 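Raw plate signals without normalisation; calls rest on plate z-scores that were not deposited; ratio present for only 364 wells.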 The numbers tell different reagents against one gene apart. The record does not give: the dose of the treatment.

no.	gene knocked down	dsRNA no.	calcium entry signal, replicate 1 (fluorescence units)	calcium entry signal, replicate 2 (fluorescence units)	entry to resting ratio	resting calcium signal, replicate 1 (fluorescence units)	resting calcium signal, replicate 2 (fluorescence units)	Outcome
1	CG6937	1	1.94e7	2.03e7		1.19e7	1.02e7	inactive
2	Rat1	1	2.96e7			1.79e7		inactive
3	CG7601	1	2.86e7	2.78e7		1.36e7	1.30e7	inactive
4	mRRF2	1	3.53e7	3.00e7		1.64e7	1.20e7	inactive
5	CG17760	1	3.54e7	4.60e7		1.71e7	1.98e7	inactive
6	Ythdf	1	4.26e7	4.94e7		1.92e7	2.09e7	inactive
7	Ythdf	2	3.65e7	4.39e7		1.64e7	1.83e7	inactive
8	CG8192	1	2.81e7	2.17e7		1.37e7	1.37e7	inactive
9	CG43091	1	3.94e7	3.00e7		2.11e7	1.64e7	inactive
10	grau	1	4.55e7	5.72e7		2.01e7	2.10e7	inactive
11	Dlip2	1	3.13e7	6.15e7		1.59e7	2.62e7	inactive
12	Rh5	1	5.66e7			2.65e7		inactive
13	CG13587	1	4.25e7	4.47e7		2.11e7	2.13e7	inactive
14	ich	1	3.35e7	5.91e7		1.62e7	2.85e7	inactive
15	ich	2	5.03e7	3.70e7		2.54e7	1.78e7	inactive
16	COX4L	1	3.52e7	3.82e7		1.90e7	1.72e7	inactive
17	CG31820	1	2.00e7	2.60e7		1.09e7	1.21e7	inactive
18	png	1	3.48e7	3.79e7	2	1.77e7	1.63e7	inactive
19	CG14082	1	2.25e7	4.05e7		1.09e7	1.88e7	inactive
20	CG30091	1	3.39e7	3.49e7		1.92e7	1.62e7	inactive
21	ssh	1	4.39e7	3.60e7		2.27e7	1.73e7	inactive
22	CG15615	1	3.37e7	4.59e7		1.52e7	2.18e7	inactive

An excerpt from above, limited to “calcium entry signal, replicate 1 (fluorescence units)”.
CG31820: 2.00e7
png: 3.48e7
CG14082: 2.25e7
CG30091: 3.39e7
ssh: 4.39e7
CG15615: 3.37e7

More results follow.
no.	gene knocked down	dsRNA no.	calcium entry signal, replicate 1 (fluorescence units)	calcium entry signal, replicate 2 (fluorescence units)	entry to resting ratio	resting calcium signal, replicate 1 (fluorescence units)	resting calcium signal, replicate 2 (fluorescence units)	Outcome
23	bisc	1	4.59e7			2.29e7		inactive
24	CG31788	1	3.06e7	3.35e7		1.62e7	1.73e7	inactive
25	Galphaq	1	3.95e7	4.34e7		1.70e7	2.06e7	inactive
26	CG11134	1	3.53e7	2.55e7		1.98e7	1.35e7	inactive
27	CG13220	1	2.36e7	4.25e7		1.27e7	1.73e7	inactive
28	Sec63	1	2.59e7	4.24e7		1.25e7	1.93e7	inactive
29	slp2	1	3.80e7	3.25e7		1.92e7	1.62e7	inactive
30	Ugt37A1	1	6.98e7	4.86e7		3.33e7	2.04e7	inactive
31	CG14624	1	4.33e7	5.35e7	2.4	1.84e7	2.29e7	inactive
32	Nup205	1	2.81e7	2.67e7		1.57e7	1.44e7	inactive
33	CG16852	1	4.10e7	2.62e7		1.93e7	1.25e7	inactive
34	hig	1	2.62e7	6.71e7		1.18e7	2.78e7	inactive
35	hig	2	3.02e7	4.45e7		1.48e7	2.04e7	inactive
36	hig	3	5.69e7	4.25e7		3.02e7	2.03e7	inactive
37	CG11127	1	4.70e7			2.33e7		inactive
38	CG3819	1	1.96e7	3.34e7		1.16e7	1.51e7	inactive
39	CG43181	1	4.48e7	4.63e7		2.49e7	1.99e7	inactive
40	Ddr	1	3.86e7	4.31e7		1.97e7	2.00e7	inactive
41	Ddr	2	4.42e7	4.25e7		2.22e7	2.03e7	inactive
42	Ddr	3	3.35e7	4.22e7		1.68e7	1.94e7	inactive
43	Ddr	4	3.80e7	2.57e7		1.86e7	1.26e7	inactive
44	Ddr	5	3.44e7	3.63e7		1.82e7	1.66e7	inactive
45	Ddr	6	3.49e7	4.33e7		1.72e7	2.00e7	inactive
46	Nlp	1	4.42e7	5.06e7		2.10e7	2.35e7	inactive
47	su(r)	1	3.23e7	3.51e7		1.64e7	1.62e7	inactive
48	atlas	1	2.37e7	2.29e7		1.36e7	1.13e7	inactive
49	ari-1	1	3.60e7	3.25e7		1.82e7	1.58e7	inactive
50	ari-1	2	2.16e7	3.26e7		1.18e7	1.59e7	inactive
51	CG17233	1	2.98e7	2.25e7		2.50e7	1.29e7	inactive
52	CG13323	1	2.09e7	3.36e7		1.07e7	1.41e7	inactive
53	FucTD	1	3.36e7	3.85e7		1.68e7	1.83e7	inactive
54	Ndae1	1	2.72e7	3.70e7		1.38e7	1.52e7	inactive
55	Ndae1	2	3.78e7			2.04e7		inactive
56	Nmdmc	1	3.16e7	4.25e7		1.38e7	1.84e7	inactive
57	CG15818	1	5.28e7			2.20e7		inactive
58	Osi8	1	3.59e7	3.71e7		1.73e7	1.61e7	inactive
